Data published in paper PMC5114622, “In vivo protein interaction network analysis reveals porin-localized antibiotic inactivation in Acinetobacter baumannii strain AB5075” (Nature Communications, 2016).
No constants are given. Whether binding was seen depends on the method and setting. In cells and extracts the contact can be indirect. Some results given as binding are weak or reduced against the parent protein; the word gives no strength.

Protein sequences, listed by entry. Tags and fused reporters are not part of them. Residues count along the entry.
UniProt Q9L4P2, residues 18-273: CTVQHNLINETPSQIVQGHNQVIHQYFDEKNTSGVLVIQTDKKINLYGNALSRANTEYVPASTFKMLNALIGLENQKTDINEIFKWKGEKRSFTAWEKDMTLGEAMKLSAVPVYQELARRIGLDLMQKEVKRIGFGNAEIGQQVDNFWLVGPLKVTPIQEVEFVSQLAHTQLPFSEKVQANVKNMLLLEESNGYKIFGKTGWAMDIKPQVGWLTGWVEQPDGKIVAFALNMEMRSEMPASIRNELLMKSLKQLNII

Target: β-lactamase Oxa-23 (Acinetobacter baumannii AB5075 (endogenous in AB5075 cells)) (UniProt Q9L4P2)
Assay: cross-linking; in vivo cross-linking of intact A. baumannii AB5075 cells with the PIR cross-linker BDP-NHP (500 mM Na2HPO4 pH 7.4, 150 mM NaCl, room temperature), trypsin digest, avidin enrichment, LC-MS (ReACT); cross-linked peptide pairs identified

In the case of “β-lactamase Oxa-23 (from UniProt Q9L4P2 18-273) (enzyme)”, the binding was “binds”.
